Experimental data taken from PMC11369598.
No constants are given. Whether binding was seen depends on the method and setting. Binding seen in cells or lysates may run through a third protein. Some results given as binding are weak or reduced against the parent protein; the word gives no strength. Sequences can lack the tags named with a protein.

Biological target: T1, KLHL6 wild type, C-terminal Strep-HA tag (KLHL6-strHA) (human) (UniProt Q8WZ60)
T1 sequence: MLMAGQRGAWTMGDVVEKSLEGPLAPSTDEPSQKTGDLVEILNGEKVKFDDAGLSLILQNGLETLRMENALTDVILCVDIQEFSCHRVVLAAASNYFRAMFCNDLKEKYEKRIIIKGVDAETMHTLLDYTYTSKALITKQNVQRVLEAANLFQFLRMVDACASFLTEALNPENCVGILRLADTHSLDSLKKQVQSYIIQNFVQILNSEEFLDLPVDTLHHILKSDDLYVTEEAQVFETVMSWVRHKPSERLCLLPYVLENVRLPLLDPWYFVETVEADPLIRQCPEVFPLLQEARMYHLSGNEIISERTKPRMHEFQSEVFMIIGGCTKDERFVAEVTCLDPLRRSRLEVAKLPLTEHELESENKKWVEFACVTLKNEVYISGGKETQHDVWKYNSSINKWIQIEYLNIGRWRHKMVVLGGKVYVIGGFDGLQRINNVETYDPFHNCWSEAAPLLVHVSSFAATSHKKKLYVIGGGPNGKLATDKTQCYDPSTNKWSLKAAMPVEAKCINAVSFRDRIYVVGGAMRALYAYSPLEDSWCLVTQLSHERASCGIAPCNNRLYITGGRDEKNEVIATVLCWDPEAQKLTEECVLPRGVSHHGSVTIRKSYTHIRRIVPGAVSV
Experiment: pull-down; SuDHL4 cells transduced with Strep-tagged WT and mutant KLHL6 or EmGFP; eluate purified for Strep-tag; Western blot with HA antibody (bait) and KLHL6 antibody (bait and prey)

B1: endogenous KLHL6 (protein, UniProt Q8WZ60 1-621)
chain: T1 sequence
binding: binds
